In patent US20110152202A1 one finds binding data, which are given here for two molecules.

Sequences of proteins named here, by UniProt entry; tags and fusion partners are left off. Residues count along the entry.
UniProt P08101, residues 30-330: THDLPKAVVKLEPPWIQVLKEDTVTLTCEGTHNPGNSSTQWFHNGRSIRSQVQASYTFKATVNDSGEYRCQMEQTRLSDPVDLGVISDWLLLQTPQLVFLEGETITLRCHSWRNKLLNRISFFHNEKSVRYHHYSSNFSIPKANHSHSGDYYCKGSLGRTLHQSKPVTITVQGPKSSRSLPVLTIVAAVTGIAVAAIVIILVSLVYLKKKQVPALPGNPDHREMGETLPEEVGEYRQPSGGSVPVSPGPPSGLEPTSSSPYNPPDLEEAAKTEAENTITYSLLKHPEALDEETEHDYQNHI
UniProt P12318, residues 34-217: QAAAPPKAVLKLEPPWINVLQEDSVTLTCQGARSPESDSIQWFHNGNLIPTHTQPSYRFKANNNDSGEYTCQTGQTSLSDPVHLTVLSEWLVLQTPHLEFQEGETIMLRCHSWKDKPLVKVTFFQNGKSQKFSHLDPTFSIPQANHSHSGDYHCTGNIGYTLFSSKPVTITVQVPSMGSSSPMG

For experiment [1], the target named is mouse FcγRIIb on mouse peritoneal macrophages (from FcR γ-chain-/- mice) (mouse) (UniProt P08101). The experiment can be described thus: two-color flow cytometry on mouse peritoneal macrophages. (In general: In flow cytometry, cells or beads pass a laser one at a time.)
A further experiment has as its target human FcγRIIa (human) (UniProt P12318). The experiment can be described thus: SPR, CRP as analyte on immobilized human FcγR; same SPR experiment as M8; Kd above the highest measurable limit, weak binding, not shown non-binding. For orientation: SPR reads the build-up and loss of mass on a sensor chip optically.
Experiment [2] concerns the target mouse FcγRIIb on mouse peritoneal macrophages (from FcR γ-chain-/- mice) (mouse) (UniProt P08101). The experiment can be described thus: two-color flow cytometry of CRP bound to mouse peritoneal macrophages expressing FcγRIIb (from FcR γ-chain-/- mice); panel title 'Binding to FcγRII'.

Numbering of substitutions follows the chain as printed. Names and notes keep the numbering of the source. No constants are given. Whether binding was seen depends on the method and setting. Some results given as binding are weak or reduced against the parent protein; the word gives no strength.

B1: Y175L mutant CRP (tyrosine 175 replaced by leucine) (ligand)
chain: QTDMSRKAFVFPKESDTSYVSLKAPLTKPLKAFTVCLHFYTELSSTRGYSIFSYATKRQDNEILIFWSKDIGYSFTVGGSEILFEVPEVTVAPVHICTSWESASGIVEFWVDGKPRVRKSLKKGYTVGAEASIILGQEQDSFGGNFEGSQSLVGDIGNVNMWDFVLSPDEINTILLGGPFSPNVLNWRALKYEVQGEVFTKPQLWP
As for B1, the binding entry in experiment [1] was “binds”; with human FcγRIIa (human), “no binding (tested: 16.8 µM)”; in experiment [2] it was “binds”.

B2: C-reactive protein (human CRP) (ligand)
chain: B1 chain with L175Y
For the molecule B2, in experiment [2], the binding result is recorded as “binds”.
